Reference: PubChem BioAssay AID1159578 (Peter MacCallum Cancer Centre, 2015)
The deposit covers about 18,000 reagents; shown is a part drawn at random. About 1,030 of all reagents (5.7%) were called active. 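Inactive calls also include pools with fewer than 3300 nuclei, whose migration was not assessed.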 Raw values are not corrected between plates. No sequences are given here.

Test: 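Knock-downs that alter how fast lymphatic endothelial cells migrate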 (primary screen)
System: human lymphatic endothelial cells
Knock-down reagent: siRNA pool against human genes, 40 nM
Timing: 48 h after transfection
Read-out: 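High-content imaging of dye-stained cells in a scratch assay measures filled wound area and nuclei per well; duplicate means given as ratio to mock and robust z-score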
Scale: migration robust z-score: higher = faster migration into the scratch; migration relative to mock: higher = more scratch area covered than mock; nuclei per well: higher = more cells in the well
Active means: 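Migration changed when robust z exceeds 2 or falls below -2 and mean nuclei number is at least 3300; otherwise not called changed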
Meaning of the calls: active = migration changed; inactive = no migration change, or too few cells

migration robust z-score | migration class with cell-count check | migration relative to mock | nuclei per well, duplicate mean | call | Target gene
0.86 | migration z between -2 and 2; enough cells | 1.1 | 5520 | inactive | EPB41L4B
-1.03 | migration z between -2 and 2; enough cells | 0.62 | 4385 | inactive | MLF2
1.1 | migration z between -2 and 2; enough cells | 1.17 | 4708 | inactive | IQSEC1
-1.12 | migration z between -2 and 2; enough cells | 0.59 | 4876 | inactive | CACNG3
0.18 | migration z between -2 and 2; enough cells | 0.84 | 5668 | inactive | SPSB2
0.71 | migration z between -2 and 2; enough cells | 1.07 | 6178 | inactive | SLX1A
-0.78 | migration z between -2 and 2; enough cells | 0.66 | 4773 | inactive | STKLD1
2.05 | migration z above 2; enough cells | 1.42 | 6318 | active | MS4A15
-0.31 | migration z between -2 and 2; enough cells | 0.74 | 5816 | inactive | PSPHP1
-0.21 | migration z between -2 and 2; enough cells | 0.82 | 5003 | inactive | KRTAP19-4
-1.99 | migration z between -2 and 2; enough cells | 0.37 | 5412 | inactive | ANGEL1
0.34 | migration z between -2 and 2; enough cells | 0.87 | 4862 | inactive | TGIF2
-1.25 | migration z between -2 and 2; enough cells | 0.56 | 5384 | inactive | PFKP
-0.14 | migration z between -2 and 2; enough cells | 0.85 | 6782 | inactive | ZNF311
-0.19 | migration z between -2 and 2; enough cells | 0.84 | 6631 | inactive | STIMATE
0.13 | migration z between -2 and 2; enough cells | 0.83 | 6344 | inactive | ENO3
-0.68 | migration z between -2 and 2; enough cells | 0.7 | 5146 | inactive | CLEC6A
0.34 | migration z between -2 and 2; enough cells | 0.98 | 5930 | inactive | CEACAM19
-0.56 | migration z between -2 and 2; enough cells | 0.74 | 7000 | inactive | TMEM82
-0.36 | migration z between -2 and 2; enough cells | 0.74 | 6475 | inactive | DYRK1A
-0.18 | migration z between -2 and 2; enough cells | 0.77 | 4347 | inactive | NEK5
1.45 | migration z between -2 and 2; enough cells | 1.08 | 5396 | inactive | TRAF4
0.99 | migration z between -2 and 2; enough cells | 1.15 | 6062 | inactive | SLC49A3
-0.42 | migration z between -2 and 2; enough cells | 0.72 | 6324 | inactive | SETDB1
0.67 | migration z between -2 and 2; enough cells | 0.94 | 5426 | inactive | FBXO39
0.04 | migration z between -2 and 2; enough cells | 0.9 | 5956 | inactive | OLIG3
-0.2 | migration z between -2 and 2; enough cells | 0.84 | 5674 | inactive | LSM5
0.8 | migration z between -2 and 2; enough cells | 0.96 | 4980 | inactive | FUS
0.34 | migration z between -2 and 2; enough cells | 0.97 | 6381 | inactive | GASK1B
2.04 | migration z above 2; enough cells | 1.42 | 6128 | active | ING4
-0.65 | migration z between -2 and 2; enough cells | 0.68 | 5492 | inactive | HM13
-1.38 | migration z between -2 and 2; enough cells | 0.54 | 5488 | inactive | DLG5
1.2 | migration z between -2 and 2; enough cells | 1.19 | 5244 | inactive | ADARB1
0.6 | migration z between -2 and 2; enough cells | 0.92 | 6030 | inactive | BAP1
0.43 | migration z between -2 and 2; enough cells | 1 | 5988 | inactive | RCC2
-0.96 | migration z between -2 and 2; enough cells | 0.64 | 6932 | inactive | TTC33
0.31 | migration z between -2 and 2; enough cells | 0.86 | 6545 | inactive | AHR
0.42 | migration z between -2 and 2; enough cells | 1 | 5132 | inactive | LCE3A
-0.65 | migration z between -2 and 2; enough cells | 0.68 | 6718 | inactive | MYH7
-0.88 | migration z between -2 and 2; enough cells | 0.64 | 5866 | inactive | NAMPT
1.25 | migration z between -2 and 2; enough cells | 1.21 | 6112 | inactive | RASGEF1A
0.52 | migration z between -2 and 2; enough cells | 0.9 | 5831 | inactive | EDEM1
0.18 | migration z between -2 and 2; enough cells | 0.93 | 5685 | inactive | GPSM1
0.32 | migration z between -2 and 2; enough cells | 0.86 | 6826 | inactive | APOC3
-2.61 | migration z below -2; enough cells | 0.21 | 5298 | active | PCDH11X
-0.06 | migration z between -2 and 2; enough cells | 0.87 | 6155 | inactive | TSPAN32
-0.64 | migration z between -2 and 2; enough cells | 0.72 | 5310 | inactive | AP4B1
-1.1 | migration z between -2 and 2; enough cells | 0.6 | 5799 | inactive | OR5T1
-0.58 | migration z between -2 and 2; enough cells | 0.74 | 5917 | inactive | CTNND2
-0.7 | migration z between -2 and 2; enough cells | 0.7 | 5089 | inactive | WDR72
-2.34 | migration z below -2; enough cells | 0.29 | 4049 | active | KRT10-AS1
-0.78 | migration z between -2 and 2; enough cells | 0.68 | 4998 | inactive | KRTAP4-4
1.66 | migration z between -2 and 2; enough cells | 1.31 | 6458 | inactive | SYCN
-1.21 | migration z between -2 and 2; enough cells | 0.57 | 6096 | inactive | ZNF530
0.57 | migration z between -2 and 2; enough cells | 1.03 | 5378 | inactive | CTAG2
-0.28 | migration z between -2 and 2; enough cells | 0.81 | 5806 | inactive | COPS5
0.66 | migration z between -2 and 2; enough cells | 1.06 | 4556 | inactive | CCL15

5 successive records from above, quoted:
migration robust z-score | migration class with cell-count check | migration relative to mock | nuclei per well, duplicate mean | call | Target gene
0.34 | migration z between -2 and 2; enough cells | 0.97 | 6381 | inactive | GASK1B
2.04 | migration z above 2; enough cells | 1.42 | 6128 | active | ING4
-0.65 | migration z between -2 and 2; enough cells | 0.68 | 5492 | inactive | HM13
-1.38 | migration z between -2 and 2; enough cells | 0.54 | 5488 | inactive | DLG5
1.2 | migration z between -2 and 2; enough cells | 1.19 | 5244 | inactive | ADARB1
